Paper PMC8087765
No constants are given. Whether binding was seen depends on the method and setting. In cells and extracts the contact can be indirect. Some binding calls cover weakened binding; strength is not graded here. For part of these data: Tags and fused reporters may be left off the sequences shown.

Amino acid sequences for entries named in this document (tags omitted). A change or cut given only in a name is not applied to a line headed by its entry.
UniProt Q99683: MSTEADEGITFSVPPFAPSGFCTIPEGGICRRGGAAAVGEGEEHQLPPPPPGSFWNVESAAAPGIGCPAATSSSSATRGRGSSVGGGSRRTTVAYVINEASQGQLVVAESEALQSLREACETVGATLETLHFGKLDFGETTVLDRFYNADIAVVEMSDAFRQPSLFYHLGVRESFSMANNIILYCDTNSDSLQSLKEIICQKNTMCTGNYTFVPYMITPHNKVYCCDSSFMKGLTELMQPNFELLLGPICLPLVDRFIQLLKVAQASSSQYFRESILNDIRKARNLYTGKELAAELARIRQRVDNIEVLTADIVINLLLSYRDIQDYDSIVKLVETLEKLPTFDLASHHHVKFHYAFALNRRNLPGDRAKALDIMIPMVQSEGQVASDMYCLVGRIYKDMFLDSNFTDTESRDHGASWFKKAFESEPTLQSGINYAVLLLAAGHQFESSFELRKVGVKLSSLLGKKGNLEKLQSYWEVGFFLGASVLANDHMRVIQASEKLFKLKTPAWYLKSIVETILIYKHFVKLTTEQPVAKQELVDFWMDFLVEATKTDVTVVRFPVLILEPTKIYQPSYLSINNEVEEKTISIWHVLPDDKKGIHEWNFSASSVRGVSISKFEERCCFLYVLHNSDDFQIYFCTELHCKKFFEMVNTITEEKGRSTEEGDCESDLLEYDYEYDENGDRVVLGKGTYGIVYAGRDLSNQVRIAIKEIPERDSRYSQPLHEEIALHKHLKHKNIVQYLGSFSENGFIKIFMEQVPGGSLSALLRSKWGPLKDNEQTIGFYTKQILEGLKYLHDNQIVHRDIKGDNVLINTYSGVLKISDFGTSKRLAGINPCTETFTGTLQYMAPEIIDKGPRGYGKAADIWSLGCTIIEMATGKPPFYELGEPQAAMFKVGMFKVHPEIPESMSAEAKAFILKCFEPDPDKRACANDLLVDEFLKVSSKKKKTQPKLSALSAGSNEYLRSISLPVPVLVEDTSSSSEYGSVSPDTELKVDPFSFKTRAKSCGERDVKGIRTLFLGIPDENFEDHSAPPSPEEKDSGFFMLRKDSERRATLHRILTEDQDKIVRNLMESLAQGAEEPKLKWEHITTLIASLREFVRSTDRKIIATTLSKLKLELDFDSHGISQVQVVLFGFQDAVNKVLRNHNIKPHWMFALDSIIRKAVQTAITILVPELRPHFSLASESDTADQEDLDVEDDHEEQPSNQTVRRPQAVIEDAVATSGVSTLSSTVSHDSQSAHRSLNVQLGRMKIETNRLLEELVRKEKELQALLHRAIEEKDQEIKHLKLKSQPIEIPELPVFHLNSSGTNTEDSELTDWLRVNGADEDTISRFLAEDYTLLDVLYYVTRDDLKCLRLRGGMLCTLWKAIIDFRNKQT

Experiments:
[1] = biological target: HA-tagged ASK1 N-terminal truncated mutant, HA-ASK1 1-678 (human) (UniProt Q99683); assay: co-IP; dimerisation experiment: HA/FLAG-tagged ASK1 N-terminal and MYC-tagged SDPR transfected into HEK 293T; precipitation with anti-HA/FLAG antibody
[2] = biological target: HA-tagged ASK1 N-terminal truncated mutant, HA-ASK1 1-678 (human) (UniProt Q99683); assay: co-IP; exogenous co-IP: HEK293T cells co-transfected with FLAG-tagged SDPR and HA-tagged ASK1 (full length or truncated); precipitation with anti-FLAG or anti-HA antibody, steps as for the endogenous co-IP
[3] = biological target: HA-tagged full-length apoptosis signal-regulating kinase 1 (ASK1) (human) (UniProt Q99683); assay: as above

| Molecule | binding [1] | binding [2] | binding [3] |
| --- | --- | --- | --- |
| HA-tagged ASK1 N-terminal truncated mutant, HA-ASK1 1-678 (from UniProt Q99683 1-678) (domain or fragment) | binds | – | – |
| FLAG-tagged serum deprivation-response protein (SDPR), expressed in HEK293T cells (protein, UniProt O95810 1-425) MGEDAAQAEKFQHPGSDMRQEKPSSPSPMPSSTPSPSLNLGNTEEAIRDNSQVNAVTVLTLLDKLVNMLDAVQENQHKMEQRQISLEGSVKGIQNDLTKLSKYQASTSNTVSKLLEKSRKVSAHTRAVKERMDRQCAQVKRLENNHAQLLRRNHFKVLIFQEENEIPASVFVKQPVSGAVEGKEELPDENKSLEETLHTVDLSSDDDLPHDEEALEDSAEEKVEESRAEKIKRSSLKKVDSLKKAFSRQNIEKKMNKLGTKIVSVERREKIKKSLTSNHQKISSGKSSPFKVSPLTFGRKKVREGESHAENETKSEDLPSSEQMPNDQEEESFAEGHSEASLASALVEGEIAEEAAEKATSRGSNSGMDSNIDLTIVEDEEEESVALEQAQKVRYEGSYALTSEEAERSDGDPVQPAVLQVHQTS | – | binds | binds |
